Test results reported in paper PMC6737968.
No constants are given. Whether binding was seen depends on the method and setting. In cells and extracts the contact can be indirect. Some results given as binding are weak or reduced against the parent protein; the word gives no strength.

Sequences of proteins named here, by UniProt entry; tags and fusion partners are left off. Residues count along the entry.
UniProt P15116, residues 160-906: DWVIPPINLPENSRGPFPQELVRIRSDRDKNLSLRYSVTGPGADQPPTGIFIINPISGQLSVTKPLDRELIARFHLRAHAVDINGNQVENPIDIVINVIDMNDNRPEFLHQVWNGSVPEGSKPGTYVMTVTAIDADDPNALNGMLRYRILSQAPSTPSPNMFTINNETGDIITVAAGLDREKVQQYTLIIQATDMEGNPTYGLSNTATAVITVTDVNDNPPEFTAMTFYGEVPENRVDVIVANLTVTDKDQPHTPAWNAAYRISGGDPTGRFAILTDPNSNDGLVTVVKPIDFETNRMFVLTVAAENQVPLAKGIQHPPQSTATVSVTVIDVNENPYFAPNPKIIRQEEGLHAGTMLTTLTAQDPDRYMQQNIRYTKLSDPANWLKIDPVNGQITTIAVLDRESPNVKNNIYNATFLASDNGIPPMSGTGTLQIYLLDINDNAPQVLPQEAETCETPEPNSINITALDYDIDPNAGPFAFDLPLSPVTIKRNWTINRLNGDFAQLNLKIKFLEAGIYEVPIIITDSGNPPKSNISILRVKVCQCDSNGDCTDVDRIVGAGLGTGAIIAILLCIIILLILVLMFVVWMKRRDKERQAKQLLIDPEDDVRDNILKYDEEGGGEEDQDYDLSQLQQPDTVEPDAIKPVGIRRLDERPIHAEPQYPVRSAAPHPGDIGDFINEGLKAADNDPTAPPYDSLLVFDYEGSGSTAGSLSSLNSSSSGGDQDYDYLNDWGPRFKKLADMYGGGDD
UniProt Q02248: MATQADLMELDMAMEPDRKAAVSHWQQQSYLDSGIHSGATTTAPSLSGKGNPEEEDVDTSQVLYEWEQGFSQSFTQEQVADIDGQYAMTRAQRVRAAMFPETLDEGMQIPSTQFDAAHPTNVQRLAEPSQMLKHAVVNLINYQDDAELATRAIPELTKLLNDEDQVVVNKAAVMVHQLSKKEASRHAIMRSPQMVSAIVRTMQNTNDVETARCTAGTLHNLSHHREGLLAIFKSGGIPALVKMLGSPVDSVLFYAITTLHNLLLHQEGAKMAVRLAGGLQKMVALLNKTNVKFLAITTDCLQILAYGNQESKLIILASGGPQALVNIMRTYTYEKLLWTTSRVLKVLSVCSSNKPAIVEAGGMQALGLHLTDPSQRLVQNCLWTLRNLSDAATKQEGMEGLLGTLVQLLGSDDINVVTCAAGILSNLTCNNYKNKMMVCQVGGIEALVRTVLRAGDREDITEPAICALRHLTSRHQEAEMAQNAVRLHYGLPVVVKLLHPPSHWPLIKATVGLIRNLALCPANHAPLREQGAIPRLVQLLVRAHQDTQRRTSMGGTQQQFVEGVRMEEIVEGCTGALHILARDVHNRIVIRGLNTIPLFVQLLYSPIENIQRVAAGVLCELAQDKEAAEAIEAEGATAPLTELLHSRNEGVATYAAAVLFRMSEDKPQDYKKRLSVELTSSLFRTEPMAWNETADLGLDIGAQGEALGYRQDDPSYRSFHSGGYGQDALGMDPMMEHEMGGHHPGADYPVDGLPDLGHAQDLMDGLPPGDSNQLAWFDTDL

T1: Discoidin domain receptor 1 (mouse (endogenous in primary VSMCs)) (UniProt Q03146)
T1 sequence: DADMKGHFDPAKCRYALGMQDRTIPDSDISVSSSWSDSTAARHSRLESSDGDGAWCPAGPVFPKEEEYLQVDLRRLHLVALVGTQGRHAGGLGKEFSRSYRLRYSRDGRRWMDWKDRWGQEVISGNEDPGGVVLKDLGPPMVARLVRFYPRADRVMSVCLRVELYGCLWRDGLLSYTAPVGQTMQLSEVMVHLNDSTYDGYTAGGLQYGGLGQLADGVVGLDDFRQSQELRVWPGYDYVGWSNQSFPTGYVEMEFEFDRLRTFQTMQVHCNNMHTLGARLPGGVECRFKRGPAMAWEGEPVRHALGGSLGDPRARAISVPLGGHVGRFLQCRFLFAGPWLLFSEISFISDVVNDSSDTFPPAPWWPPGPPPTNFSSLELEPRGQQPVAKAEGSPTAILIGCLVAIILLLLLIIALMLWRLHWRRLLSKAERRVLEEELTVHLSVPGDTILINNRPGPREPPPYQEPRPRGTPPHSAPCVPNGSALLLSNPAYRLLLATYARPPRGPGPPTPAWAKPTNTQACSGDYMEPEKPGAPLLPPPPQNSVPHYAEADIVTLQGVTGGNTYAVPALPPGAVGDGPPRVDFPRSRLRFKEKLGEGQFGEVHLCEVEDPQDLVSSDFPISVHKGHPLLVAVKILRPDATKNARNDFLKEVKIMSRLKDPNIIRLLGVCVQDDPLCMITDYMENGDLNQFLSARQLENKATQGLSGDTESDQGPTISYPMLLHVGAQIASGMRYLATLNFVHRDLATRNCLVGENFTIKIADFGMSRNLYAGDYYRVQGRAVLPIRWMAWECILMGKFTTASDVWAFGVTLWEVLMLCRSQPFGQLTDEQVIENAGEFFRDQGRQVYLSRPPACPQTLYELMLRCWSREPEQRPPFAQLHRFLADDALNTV

B1: Discoidin domain receptor 1 (receptor, UniProt Q03146 20-911)
chain: T1 sequence
B2: p120-catenin (protein, UniProt P30999 1-938)
chain: MDDSEVESTASILASVKEQEAQFEKLTRALEEERRHVSAQLERVRVSPQDANSLMANGTLTRRHQNGRFVGDADLERQKFSDLKLNGPQDHNHLLYSTIPRMQEPGQIVETYTEEDPEGAMSVVSVETTDDGTTRRTETTVKKVVKTMTTRTVQPVPMGPDGLPVDASAVSNNYIQTLGRDFRKNGNGGPGPYVGQAGTATLPRNFHYPPDGYGRHYEDGYPGGSDNYGSLSRVTRIEERYRPSMEGYRAPSRQDVYGPQPQVRVGGSSVDLHRFHPEPYGLEDDQRSMGYDDLDYGMMSDYGTARRTGTPSDPRRRLRSYEDMIGEEVPPDQYYWAPLAQHERGSLASLDSLRKGMPPPSNWRQPELPEVIAMLGFRLDAVKSNAAAYLQHLCYRNDKVKTDVRKLKGIPILVGLLDHPKKEVHLGACGALKNISFGRDQDNKIAIKNCDGVPALVRLLRKARDMDLTEVITGTLWNLSSHDSIKMEIVDHALHALTDEVIIPHSGWEREPNEDCKPRHIEWESVLTNTAGCLRNVSSERSEARRKLRECDGLVDALIFIVQAEIGQKDSDSKLVENCVCLLRNLSYQVHREIPQAERYQEALPTVANSTGPHAASCFGAKKGKDEWFSRGKKPTEDPANDTVDFPKRTSPARGYELLFQPEVVRIYISLLKESKTPAILEASAGAIQNLCAGRWTYGRYIRSALRQEKALSAIAELLTSEHERVVKAASGALRNLAVDARNKELIGKHAIPNLVKNLPGGQQNSSWNFSEDTVVSILNTINEVIAENLEAAKKLRETQGIEKLVLINKSGNRSEKEVRAAALVLQTIWGYKELRKPLEKEGWKKSDFQVNLNNASRSQSSHSYDDSTLPLIDRNQKSDKKPDREEIPMSNMGSNTKSLDNNYSTLNERGDHNRTLDRSGDLGDMEPLKGAPLMQKI

What was measured:
[1] = molecular target: N-cadherin (mouse (endogenous in primary VSMCs)) (UniProt P15116); test: co-IP; lysates of serum-starved primary mouse DDR1+/+ and DDR1-/- VSMCs (1% Triton lysis buffer, 20 mM Tris-HCl pH 7.5, 150 mM NaCl); anti-N-cadherin (ab18203) or anti-DDR1 (D1G6) antibody overnight at 4°C, Protein A agarose beads, three washes, western blot
[2] = molecular target: T1, Discoidin domain receptor 1 (mouse (endogenous in primary VSMCs)); test: as above

Molecule | binding [1] | binding [2]
β-catenin (from UniProt Q02248 1-781) | binds | –
N-cadherin (from UniProt P15116 160-906) | – | binds
B1 | binds | –
B2 | binds | –
